# Results from US20240287169A1 (AULOS BIOSCIENCE, published 2024).
# By UniProt entry, the sequences of proteins in these tests, tags left out. Where a name states a change or a piece, a line headed by the entry shows the natural chain unless it says otherwise. Chains listed by the source or under a name are the forms on record and can include a tag or linker.
# recombinant human IL-2 with a 6×his tag (hIL-2-His) (P60568, form named): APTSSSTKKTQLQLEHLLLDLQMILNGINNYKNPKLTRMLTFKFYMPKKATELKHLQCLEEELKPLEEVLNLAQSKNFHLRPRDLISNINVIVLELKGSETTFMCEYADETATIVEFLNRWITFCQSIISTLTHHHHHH
# Substitutions are numbered along the chain they refer to. No constants are given. Whether binding was seen depends on the method and setting. Some binding calls cover weakened binding; strength is not graded here.
# B1: clone 1 (17.021), yeast-displayed scFv (scFv, V domains shown)
# VH: EIQLQQSGPELRRPGSSVKLSCKASGYNITDNLIHWVRHRPEHGLEWIGWIDPEDGETRYAQKFQSKATLTADTSSNAAYMQLSSLTPEDTATYFCARSLDSTYIYPFAYWGQGTLVTVSS
# VL: DIVMTQSPFSLAVSEGEMVTINCKSSQSLLRSGNQKNYLAWYQQKPGQSPKLLIYYASTGQSGVPDRFIGSGSGTDFTLTISDVQAEDLADYYCLQHYQSPPTFGAGTKLELK
# B2: clone 2 (17.022), yeast-displayed scFv (scFv, V domains shown)
# VH: B1 VH with N32Y, Y104W
# VL: B1 VL with Q99I, S100T
# B3: clone 4 (17.023), yeast-displayed scFv (scFv, V domains shown)
# VH: B1 VH with N32Y, S99Q
# VL: B1 VL with Q99I, S100T
# B4: clone 5 (17.030), yeast-displayed scFv (scFv, V domains shown)
# VH: B1 VH with N32Y, I105D
# VL: B1 VL with Q99I
# B5: clone 6 (17.035), yeast-displayed scFv (scFv, V domains shown)
# VH: B1 VH with N32Y, I105N
# VL: B1 VL with Y98W, Q99I
# B6: clone C #7 (173R5C1-17.002) (scFv)
# scFv: EIQLQQSGPELRRPGSSVKLSCKASGYNITDYLIHWVRHRPEHGLEWIGWIDPEDGETRYAQKFQSKATLTADTSSNAAYMQLSSLTPEDTATYFCARSLDSTPIYPFAYWGQGTLVTVSSGGGGSGGGGSGGGGSDIVMTQSPFSLAVSEGEMVTINCKSSQSLLRSGNQKNYLAWYQQKPGQSPKLLIYYASTGQSGVPDRFIGSGSGTDFTLTISDVQAEDLADYYCLQHYITPPTFGAGTKLELK
# Target: recombinant human IL-2 with a 6×his tag (hIL-2-His) (human) (UniProt P60568)
# Test: yeast surface display flow cytometry, 0.1 nM hIL-2, MFI normalized to surface expression
row,Binder,binding
1,B1,binds
2,B2,binds
3,B3,binds
4,B4,binds
5,B5,binds

# Target: recombinant human IL-2 with a 6×his tag (hIL-2-His) (human) (UniProt P60568)
# Test: yeast surface display, flow cytometry
row,Binder,binding
1,B1,binds
2,B2,binds
3,B3,binds
4,B4,binds
5,B5,binds

# Target: recombinant human IL-2 with a 6×his tag (hIL-2-His) (human) (UniProt P60568)
# Test: yeast surface display selection against human IL-2
row,Binder,binding
1,B6,binds
